Literature values as cited in paper PMC6017732, “Identification and Characterizations of Novel, Selective Histone Methyltransferase SET7 Inhibitors by Scaffold Hopping- and 2D-Molecular Fingerprint-Based Similarity Search” (Molecules : A Journal of Synthetic Chemistry and Natural …, 2018).

System: SET7
Settings: cited from earlier work

CN1CCC(=C2c3ccccc3C=Cc3ccccc32)CC1 [Cyproheptadine]
IC50: 1 µM
